Reference: PubChem BioAssay AID1259308 (NCATS, 2017)
Test: 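Knock-downs that increase output of a recombinant reporter protein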 (primary screen). Cells: human HEK293 embryonic kidney cells stably expressing firefly luciferase (HEK-CMV-Luc2-Hygro). Reagents: single siRNA against human genes, 0.8 pmol siRNA per well. Time to read-out: 72 h. Measured: 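Reporter luminescence and viable-cell signal on separate replicate plates, given as percent of non-targeting control and median/MAD z-scores, plus per-cell luciferase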. Reading the numbers: total luciferase, z-score and total luciferase, % of control: higher = more reporter protein produced; luciferase per cell, z-score: higher = more reporter output per viable cell; viable cells, % of control: higher = more viable cells. Active means: 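Active when the median/MAD z-score for overall luciferase is greater than 3; a gene was taken forward for validation with new siRNAs if at least two of its three siRNAs passed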. Calls: active = raised luciferase; inactive = no rise.
In all, the deposit lists about 59,000 reagents; this is a random part of them. Over the whole deposit, about 1,510 (2.6%) were called active. 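Calls use total luciferase alone and ignore viability, so some active siRNAs may act by altering cell number.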 Reagents against one gene are numbered here.

| gene symbol | reagent no. | total luciferase, z-score | total luciferase, % of control | luciferase per cell, z-score | viable cells, % of control | Call |
| --- | --- | --- | --- | --- | --- | --- |
| ELMOD2 | 1 | 4.61 | 174 | 3.3 | 81.5 | active |
| ELMOD2 | 2 | -0.541 | 71.1 | 0.925 | 62.3 | inactive |
| ELMOD2 | 3 | -0.645 | 69.1 | -0.753 | 94.1 | inactive |
| LNPK | 1 | -2.71 | 28 | -1.25 | 43.5 | inactive |
| LNPK | 2 | 0.783 | 97.5 | 0.244 | 102 | inactive |
| LNPK | 3 | -0.548 | 71 | -1.11 | 106 | inactive |
| LINC02905 | 1 | 0.506 | 92 | 0.0653 | 101 | inactive |
| LINC02905 | 2 | 0.798 | 97.8 | 1.01 | 83.8 | inactive |
| LINC02905 | 3 | -0.0225 | 81.4 | -0.0423 | 92 | inactive |
| ETS2 | 1 | -1.18 | 58.3 | -1.47 | 95.9 | inactive |
| ETS2 | 2 | -0.461 | 72.7 | -0.791 | 100 | inactive |
| ETS2 | 3 | 0.842 | 98.6 | 1.11 | 82.4 | inactive |
| ZNF560 | 1 | 1.31 | 108 | 0.751 | 98.9 | inactive |
| ZNF560 | 2 | 0.358 | 89 | -0.175 | 104 | inactive |
| ZNF560 | 3 | -0.305 | 75.8 | -0.478 | 96.1 | inactive |
| RAB42P1 | 1 | -0.0965 | 80 | -0.243 | 95.3 | inactive |
| RAB42P1 | 2 | -2.26 | 36.9 | -1.86 | 67.4 | inactive |
| RAB42P1 | 3 | 0.494 | 91.7 | 0.673 | 85.8 | inactive |
| LINC00977 | 1 | 0.827 | 98.3 | 1.43 | 75.5 | inactive |
| LINC00977 | 2 | -0.943 | 63.1 | -0.247 | 75.3 | inactive |
| LINC00977 | 3 | -1.96 | 43 | -1.62 | 73.5 | inactive |
| OR13C4 | 1 | 3.53 | 152 | 2.1 | 97.9 | active |
| OR13C4 | 2 | 0.159 | 85 | 0.0271 | 94.4 | inactive |
| OR13C4 | 3 | 1.4 | 110 | 1.83 | 75.7 | inactive |
| SMIM5 | 1 | 0.976 | 101 | 0.235 | 106 | inactive |
| SMIM5 | 2 | 0.434 | 90.5 | 0.211 | 95.7 | inactive |
| SMIM5 | 3 | -1.38 | 54.5 | -0.846 | 76 | inactive |
| NXPE1 | 1 | 1.18 | 105 | 0.886 | 93.3 | inactive |
| NXPE1 | 2 | -1.14 | 59.3 | -0.446 | 74.5 | inactive |
| NXPE1 | 3 | 3.37 | 149 | 4.05 | 57.3 | active |
| YARS1 | 1 | 1.48 | 111 | 0.71 | 103 | inactive |
| YARS1 | 2 | -0.748 | 67 | -1.21 | 103 | inactive |
| YARS1 | 3 | 1.48 | 111 | 0.701 | 104 | inactive |
| MYO6 | 1 | -0.166 | 78.6 | -0.393 | 97.4 | inactive |
| MYO6 | 2 | 0.518 | 92.2 | 0.0728 | 101 | inactive |
| MYO6 | 3 | -0.0488 | 80.9 | 0.369 | 82 | inactive |
| MRPL24 | 1 | 0.648 | 94.8 | 0.0919 | 103 | inactive |
| MRPL24 | 2 | 0.506 | 91.9 | 1.1 | 76.8 | inactive |
| MRPL24 | 3 | 6.15 | 204 | 2.96 | 105 | active |
| TBC1D31 | 1 | 0.898 | 99.7 | 0.542 | 96.6 | inactive |
| TBC1D31 | 2 | -0.488 | 72.2 | -0.9 | 102 | inactive |
| TBC1D31 | 3 | 0.345 | 88.8 | 0.026 | 98.5 | inactive |
| MIDEAS | 1 | 0.38 | 89.4 | -0.112 | 103 | inactive |
| MIDEAS | 2 | 1.83 | 118 | 0.861 | 105 | inactive |
| MIDEAS | 3 | 0.242 | 86.7 | 0.35 | 88.4 | inactive |
| SPATA12 | 1 | -0.397 | 74 | 0.417 | 74.1 | inactive |
| SPATA12 | 2 | -0.135 | 79.2 | 0.221 | 83.5 | inactive |
| SPATA12 | 3 | -3.01 | 21.9 | -2.55 | 48 | inactive |
| PDK2 | 1 | -0.506 | 71.8 | 0.302 | 74.1 | inactive |
| PDK2 | 2 | -1.34 | 55.3 | -1.61 | 94.4 | inactive |
| PDK2 | 3 | -1.23 | 57.3 | -1.1 | 85.7 | inactive |
| ELF5 | 1 | 0.181 | 85.5 | 0.58 | 82 | inactive |
| ELF5 | 2 | 1.62 | 114 | 1.05 | 96.6 | inactive |
| ELF5 | 3 | -0.37 | 74.5 | -0.706 | 100 | inactive |
| APBA1 | 1 | -0.367 | 74.6 | -0.517 | 95.5 | inactive |
| APBA1 | 2 | -0.426 | 73.4 | -0.754 | 100 | inactive |
| APBA1 | 3 | 1.24 | 106 | 1.43 | 81.6 | inactive |
